In patent US5230802A, “Extraction process using a novel organic acid as a liquid ion exchanger” (Philip Morris Incorporated, priority 1992, dated 1993):

Legend:
[1] = Membrane-based extraction of pyridine using liquid ion exchangers (Table II); conditions: LIX 5%, PAN membrane, CO2-saturated FS, OS Isopar K
[2] = Membrane-based extraction of nicotine using liquid ion exchangers (Table II); conditions: PAN membrane, CO2-saturated FS, OS Isopar K

Question: Which “Extraction Capacity” value [1] does the source give for `CCCCCCCCOC(=O)[C@H](OC(=O)CC)[C@@H](OC(=O)CC)C(=O)O` [Example IV, (2R, 3R)-Monooctyl 2,3-Bis(propionyloxy) butanedioate] here?
Answer: 5.1 g/day-m

Question: With `CCCCC(CC)COC(=O)[C@H](OC(=O)C(CC)CCCC)[C@@H](OC(=O)C(CC)CCCC)C(=O)O` (stereo partly drawn) [Example X, (2R, 3R, 2'.xi., 2''.xi., 2'''.xi.)-Mono(2'-Ethylhexyl) 2,3-Bis(2-ethylhexanoyloxy)butanedioate] as the compound, how does the “Extraction Capacity” value ([2]; LIX 2%) read?
Answer: 8.2 g/day-m

Question: What about the “Extraction Capacity” value ([2]; LIX 5%) of the same compound?
Answer: 9.8 g/day-m

Question: With `CCCCC(CC)COC(=O)[C@H](OC(=O)CC)[C@@H](OC(=O)CC)C(=O)O` (mixture of isomers) [Example V, (2R, 3R, 2'R)- and (2R, 3R, 2'S)-Mono(2'-Ethylhexyl) 2,3-Bis(propionyloxy)butanedioate] as the compound, how does the “Extraction Capacity” value [1] read?
Answer: 4.2 g/day-m
